# Assay results from patent US11567075B2, “Immunochromatographic device, immunochromatographic kit and immunochromatographic detection method” (TANAKA KIKINZOKU KOGYO K.K., priority 2018, dated 2023).
# Test system: inactivated Group A β-hemolytic streptococcus
# Assay: Immunochromatographic detection, visual evaluation of red line on detection part
# Set-up: key: “+” (positive) when the red line on the detection part (4) could be visually observed; “++” (strong positive) when the red line could be visually observed clearly; “±” (weak positive) when a light red line could be visually observed; “−” (negative) when the red line could not be visually observed
# Conditions: for Result of Visual Evaluation (After Storage at 50° C. for 24 Hours): device stored at 50° C. for 24 hours, then positive analyte sample 5×10^5 org/mL, after 5 minutes; for Result of Visual Evaluation (After 5 Minutes): positive analyte sample 5×10^5 org/mL, 150 μL
structure (smiles),measurement,value
"O=c1oc(=O)c2cc3c(=O)oc(=O)c3cc12 [Example 2, pyromellitic anhydride]",Result of Visual Evaluation (After Storage at 50° C. for 24 Hours),++
same,Result of Visual Evaluation (After 5 Minutes),++
"N[C@@H](CCC(=O)O)C(=O)O [compound 7, glutamic acid]",Result of Visual Evaluation (After Storage at 50° C. for 24 Hours),−
same,Result of Visual Evaluation (After 5 Minutes),−
"O=C(O)CC(O)C(=O)O (centres unmarked) [compound 3, malic acid]",Result of Visual Evaluation (After Storage at 50° C. for 24 Hours),−
same,Result of Visual Evaluation (After 5 Minutes),−
"CCCCCCCC/C=C\CCCCCCCC(=O)O [compound 6, oleic acid]",Result of Visual Evaluation (After Storage at 50° C. for 24 Hours),−
same,Result of Visual Evaluation (After 5 Minutes),−
"O=C1CCC(=O)O1 [compound 2, succinic anhydride]",Result of Visual Evaluation (After Storage at 50° C. for 24 Hours),−
same,Result of Visual Evaluation (After 5 Minutes),++
"O=C1CC(c2ccccc2)C(=O)O1 (centres unmarked) [compound 8, phenylsussinic acid anhydride]",Result of Visual Evaluation (After Storage at 50° C. for 24 Hours),−
same,Result of Visual Evaluation (After 5 Minutes),+
"C=C(CC(=O)O)C(=O)O [compound 4, itaconic acid]",Result of Visual Evaluation (After Storage at 50° C. for 24 Hours),−
same,Result of Visual Evaluation (After 5 Minutes),−
